Measurements reported in patent US20250276996A1, “CATIONICALLY-ENFRAMED HIGH DENSITY AROMATIC PEPTIDES” (Research Foundation of the City University of New York, priority 2022, published 2025).

Assay: TMRM labeling of biotin-HDAP2-CL vesicles
Conditions: 100 μM CCCP or 1 mM DNP

N#CC(C#N)=NNc1cccc(Cl)c1 [CCCP, carbonyl cyanide m-chlorophenylhydrazone, reference compound]
TMRM staining of CL-biotin-HDAP2 vesicles with proton ionophore: significant decreases in TMRM staining
